Test results: PMC4674064, “Newly Characterized Region of CP190 Associates with Microtubules and Mediates Proper Spindle Morphology in Drosophila Stem Cells” (PLoS ONE, 2015)
Results are given in words; binding and its absence hold for the method and conditions named. Binding calls can cover weak binding; strength is not graded here. Where a sequence is shown, tags or fusion partners need not be part of it.

B1: CP190 fragment F1 (aa 1-209; BTB domain plus linker) (domain or fragment, UniProt Q24478 1-209)
chain: MGEVKSVKVDNWGVFFLQKLQNFFNKTDYCDLTLQFRDNSQLKVHRLVLSACTDYFNVLEQTCEIVDDALIMPNEFQADVVVPIVNFMYTGTLEFELKMYGKLLRTAKEMNMTVLLKLLEAHRRTMENVNRQQRPPSPKGIRRRTVGQPSSGLPQQRVLGPSPQSRNVATPIAQRANTQRGSTGNTMSRTSGGSNRSPYGDSSNVKQEP
B2: GST-F1-L (CP190 linker artificially dimerized as a GST fusion) (domain or fragment, UniProt Q24478 136-209)
chain: PSPKGIRRRTVGQPSSGLPQQRVLGPSPQSRNVATPIAQRANTQRGSTGNTMSRTSGGSNRSPYGDSSNVKQEP
B3: CP190 linker region F1-L (aa 136-209) (domain or fragment, UniProt Q24478 136-209)
chain: B2 chain
B4: Drosophila melanogaster CP190 BTB domain (residues 1-135) (domain or fragment, UniProt Q24478 1-135, looked up)
chain: MGEVKSVKVDNWGVFFLQKLQNFFNKTDYCDLTLQFRDNSQLKVHRLVLSACTDYFNVLEQTCEIVDDALIMPNEFQADVVVPIVNFMYTGTLEFELKMYGKLLRTAKEMNMTVLLKLLEAHRRTMENVNRQQRP
notes: CP190 (centrosome associated protein at 190 kDa), Drosophila melanogaster, BTB domain, residues 1-135; the final crystal model holds residues 2-121; Native and selenomethionine-substituted protein were crystallised; also called BTB-WT; source: E. coli BL21 DE3 (pLysS), purified (Ni-NTA, thrombin digestion, Q-sepharose ion exchange); not shown: His6, N-terminal, cleaved

Target: taxol-stabilized microtubules
Assay: co-sedimentation; taxol-stabilized MTs and purified protein incubated at room temperature 20 min, layered on a 40% glycerol cushion, 50,000xg 30 min; supernatant and pellet by SDS-PAGE (Coomassie); both purified

| Binder | binding |
| --- | --- |
| B1 | binds |
| B2 | binds weakly |
| B3 | no binding |
| B4 | no binding |
